Results are given in words; binding and its absence hold for the method and conditions named. Some entries that bind do so weakly or less than the wild type. One block for each binder: values may come before it.
How the values were obtained:
[1] = molecular target: native HSP22 of pea seed mitochondria (pea (endogenous in pea seed mitochondria)) (UniProt P46254); test: SEC; pea seed mitochondrial soluble proteins (7 mg) heated 20 min at 42 °C, centrifuged, separated on the column kept at 42 °C; fractions analysed by Western blot with the anti-HSP22 Cterm antibody
[2] = molecular target: recombinant HSP22 (HSP22rec), mature mitochondrial small heat shock protein HSP22 from pea (pea) (UniProt P46254); test: SEC; purified HSP22rec at 42 °C; sample heated 20 min at 42 °C and centrifuged before loading; same column and buffer, column kept at 42 °C; calibration at 42 °C; both purified
[3] = molecular target: T1, malate dehydrogenase from porcine heart (porcine) (UniProt P00346); test: co-sedimentation; heat aggregation assay with purified proteins: 8 to 25 µg of proteins in 50 µL MOPS 50 mM pH 7.5, DTT 1 mM, EDTA 1 mM, heated 20 min at 50 °C, 15 min on ice, centrifuged 30 min at 20,000 g; supernatants and pellets by SDS-PAGE; 1:1 mass ratio or molar ratios up to 9:1; both purified
T1 sequence: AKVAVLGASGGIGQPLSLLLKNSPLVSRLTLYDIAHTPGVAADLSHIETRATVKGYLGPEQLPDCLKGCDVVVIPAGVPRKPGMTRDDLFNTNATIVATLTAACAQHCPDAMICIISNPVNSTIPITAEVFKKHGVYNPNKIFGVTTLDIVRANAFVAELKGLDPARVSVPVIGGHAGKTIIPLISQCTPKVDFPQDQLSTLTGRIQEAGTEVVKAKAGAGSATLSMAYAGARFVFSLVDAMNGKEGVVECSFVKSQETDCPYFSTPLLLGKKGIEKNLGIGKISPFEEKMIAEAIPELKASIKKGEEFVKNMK

- binding [1]: binds
B1: native HSP22 of pea seed mitochondria (natural protein, UniProt P46254 32-202, looked up)
chain: FNTNAMRQYDQHSDDRNVDVYRHSFPRTRRDDLLLSDVFDPFSPPRSLSQVLNMVDLLTDNPVLSAASRRGWDARETEDALFLRLDMPGLGKEDVKISVEQNTLTIKGEEGAKESEEKEKSGRRFSSRIDLPEKLYKIDVIKAEMKNGVLKVTVPKMKEEERNNVINVKVD
notes: mitochondrial small heat shock protein HSP22 of pea, native protein in the soluble (matrix) extract of mitochondria from 22 h imbibed pea seeds; Detected by Western blot with anti-HSP22 peptide antibodies; source: endogenous, soluble protein extract of pea seed mitochondria

- binding [2]: no binding (condition: at 42 °C)
- binding [3]: binds
B2: recombinant HSP22 (HSP22rec), mature mitochondrial small heat shock protein HSP22 from pea (natural protein, UniProt P46254 32-202, looked up)
chain: B1 chain
notes: mature HSP22 of pea, amplified from a cDNA encoding the HSP22 precursor (UniProtKB P46254); 19.5 kDa and 170 residues stated; Cloned by NdeI/BamHI into pET3a, so an added initiator methionine is likely (surmise); No tag is mentioned; source: E. coli B834 pLys (pET3a, pET-HSP22), purified (anion exchange HitrapQ, two SEC steps on Superdex 200); also unpurified in soluble extract of the …

From article PMC6981728, “The Mitochondrial Small Heat Shock Protein HSP22 from Pea is a Thermosoluble Chaperone Prone to Co-Precipitate with Unfolding Client Proteins” (International Journal of Molecular Sciences, 2019)
